No constants are given. Whether binding was seen depends on the method and setting. In cells and extracts the contact can be indirect. Some results given as binding are weak or reduced against the parent protein; the word gives no strength. Sequences can lack the tags named with a protein.
T1: FOXA1-V5 (UniProt P55317)
T1 sequence: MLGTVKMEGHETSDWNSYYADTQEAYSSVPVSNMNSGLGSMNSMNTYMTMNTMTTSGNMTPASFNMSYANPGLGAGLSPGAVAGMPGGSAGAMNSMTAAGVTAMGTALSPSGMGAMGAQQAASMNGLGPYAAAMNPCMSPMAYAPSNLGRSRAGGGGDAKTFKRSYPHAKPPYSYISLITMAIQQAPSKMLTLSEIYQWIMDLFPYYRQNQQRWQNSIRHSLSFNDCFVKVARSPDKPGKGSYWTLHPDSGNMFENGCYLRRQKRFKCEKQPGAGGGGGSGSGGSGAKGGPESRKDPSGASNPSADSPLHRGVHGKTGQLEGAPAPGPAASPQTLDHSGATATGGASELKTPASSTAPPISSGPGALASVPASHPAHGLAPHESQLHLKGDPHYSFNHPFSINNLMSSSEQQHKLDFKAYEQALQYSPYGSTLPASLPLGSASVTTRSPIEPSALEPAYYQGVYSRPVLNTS

Sequences of proteins named here, by UniProt entry; tags and fusion partners are left off. A change or cut given only in a name is not applied to a line headed by its entry. A line that says so, or that is headed by a name, gives the form on record, which may keep a tag or linker.
UniProt P10275: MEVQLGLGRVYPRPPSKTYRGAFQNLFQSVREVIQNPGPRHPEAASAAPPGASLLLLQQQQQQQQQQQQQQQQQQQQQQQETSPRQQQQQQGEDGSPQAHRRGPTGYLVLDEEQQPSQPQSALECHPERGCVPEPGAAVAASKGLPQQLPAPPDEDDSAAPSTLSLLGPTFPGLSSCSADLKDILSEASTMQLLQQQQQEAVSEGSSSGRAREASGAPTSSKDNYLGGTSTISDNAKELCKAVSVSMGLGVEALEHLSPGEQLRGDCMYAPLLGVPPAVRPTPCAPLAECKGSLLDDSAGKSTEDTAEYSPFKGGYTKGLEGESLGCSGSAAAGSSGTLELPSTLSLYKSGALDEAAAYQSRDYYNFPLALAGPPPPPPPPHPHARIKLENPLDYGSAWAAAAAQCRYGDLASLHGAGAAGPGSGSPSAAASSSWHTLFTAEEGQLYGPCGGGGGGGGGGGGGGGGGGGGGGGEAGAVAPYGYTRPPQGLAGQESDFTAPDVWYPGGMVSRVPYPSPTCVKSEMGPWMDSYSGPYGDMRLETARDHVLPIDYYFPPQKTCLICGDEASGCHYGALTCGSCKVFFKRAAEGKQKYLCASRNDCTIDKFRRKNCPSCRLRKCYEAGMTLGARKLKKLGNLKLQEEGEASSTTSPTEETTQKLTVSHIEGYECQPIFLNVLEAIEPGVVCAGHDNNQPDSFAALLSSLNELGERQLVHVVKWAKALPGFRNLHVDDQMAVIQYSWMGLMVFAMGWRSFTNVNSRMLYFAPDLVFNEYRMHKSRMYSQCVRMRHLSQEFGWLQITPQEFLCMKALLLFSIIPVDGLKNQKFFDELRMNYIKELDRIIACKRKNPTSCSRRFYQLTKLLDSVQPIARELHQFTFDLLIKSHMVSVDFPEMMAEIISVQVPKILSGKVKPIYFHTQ
androgen receptor splice variant AR-V7 (P10275-3, form named): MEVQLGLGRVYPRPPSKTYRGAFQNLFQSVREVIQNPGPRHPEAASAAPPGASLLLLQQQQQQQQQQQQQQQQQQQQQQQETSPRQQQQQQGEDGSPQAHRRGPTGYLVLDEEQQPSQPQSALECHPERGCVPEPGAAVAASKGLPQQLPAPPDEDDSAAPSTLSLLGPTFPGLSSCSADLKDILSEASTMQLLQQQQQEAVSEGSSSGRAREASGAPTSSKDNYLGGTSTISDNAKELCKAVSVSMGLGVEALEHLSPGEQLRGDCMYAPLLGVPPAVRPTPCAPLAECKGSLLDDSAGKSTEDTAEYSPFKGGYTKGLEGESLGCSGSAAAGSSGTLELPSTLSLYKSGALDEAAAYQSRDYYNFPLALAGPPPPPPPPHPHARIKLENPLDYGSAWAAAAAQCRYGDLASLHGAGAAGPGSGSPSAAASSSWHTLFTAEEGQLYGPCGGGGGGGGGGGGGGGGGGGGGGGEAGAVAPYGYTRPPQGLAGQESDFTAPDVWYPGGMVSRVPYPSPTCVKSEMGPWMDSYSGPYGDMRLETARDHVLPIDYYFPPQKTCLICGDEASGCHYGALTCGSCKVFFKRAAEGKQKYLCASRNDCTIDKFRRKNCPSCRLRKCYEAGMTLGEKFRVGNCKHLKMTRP


Tests used:
Experiment in all cases: co-IP; HEK293T/17 cells in DMEM with 10% CSS co-transfected with FOXA1-V5 + AR (10 nM R1881 for 4 h) or FOXA1-V5 + AR-V7; lysis in 1X TESH buffer with 0.15 M NaCl; about 250 ug protein with 2 ug AR441, FOXA1 antibody or control IgG, 1 h at 4 °C; protein A/G magnetic beads; elution with RIPA, then SDS sample buffer; western blot with AR441 and FOXA1 antibody; both directions of IP
FOXA1-V5 = biological target: T1, FOXA1-V5
[1] = biological target: androgen receptor splice variant AR-V7 (UniProt P10275)
[2] = biological target: androgen receptor (AR), full length (UniProt P10275)

Row | binding (FOXA1-V5) | binding [1] | binding [2] | Molecule
1 | binds |  |  | androgen receptor (AR), full length (from UniProt P10275 1-920)
2 | binds |  |  | androgen receptor splice variant AR-V7 (from UniProt P10275-3 1-644)
3 |  | binds | binds | FOXA1-V5 (protein, UniProt P55317 1-472) MLGTVKMEGHETSDWNSYYADTQEAYSSVPVSNMNSGLGSMNSMNTYMTMNTMTTSGNMTPASFNMSYANPGLGAGLSPGAVAGMPGGSAGAMNSMTAAGVTAMGTALSPSGMGAMGAQQAASMNGLGPYAAAMNPCMSPMAYAPSNLGRSRAGGGGDAKTFKRSYPHAKPPYSYISLITMAIQQAPSKMLTLSEIYQWIMDLFPYYRQNQQRWQNSIRHSLSFNDCFVKVARSPDKPGKGSYWTLHPDSGNMFENGCYLRRQKRFKCEKQPGAGGGGGSGSGGSGAKGGPESRKDPSGASNPSADSPLHRGVHGKTGQLEGAPAPGPAASPQTLDHSGATATGGASELKTPASSTAPPISSGPGALASVPASHPAHGLAPHESQLHLKGDPHYSFNHPFSINNLMSSSEQQHKLDFKAYEQALQYSPYGSTLPASLPLGSASVTTRSPIEPSALEPAYYQGVYSRPVLNTS

Source: paper PMC8969163
